Patent US20040265295A1
Results are given in words; binding and its absence hold for the method and conditions named. For some assays here: Binding seen in cells or lysates may run through a third protein. Some results given as binding are weak or reduced against the parent protein; the word gives no strength. Values belong to the substance of their own block, whether it stands above or below them.

By UniProt entry, the sequences of proteins in these tests, tags left out. Where a name states a change or a piece, a line headed by the entry shows the natural chain unless it says otherwise.
UniProt Q9Y490: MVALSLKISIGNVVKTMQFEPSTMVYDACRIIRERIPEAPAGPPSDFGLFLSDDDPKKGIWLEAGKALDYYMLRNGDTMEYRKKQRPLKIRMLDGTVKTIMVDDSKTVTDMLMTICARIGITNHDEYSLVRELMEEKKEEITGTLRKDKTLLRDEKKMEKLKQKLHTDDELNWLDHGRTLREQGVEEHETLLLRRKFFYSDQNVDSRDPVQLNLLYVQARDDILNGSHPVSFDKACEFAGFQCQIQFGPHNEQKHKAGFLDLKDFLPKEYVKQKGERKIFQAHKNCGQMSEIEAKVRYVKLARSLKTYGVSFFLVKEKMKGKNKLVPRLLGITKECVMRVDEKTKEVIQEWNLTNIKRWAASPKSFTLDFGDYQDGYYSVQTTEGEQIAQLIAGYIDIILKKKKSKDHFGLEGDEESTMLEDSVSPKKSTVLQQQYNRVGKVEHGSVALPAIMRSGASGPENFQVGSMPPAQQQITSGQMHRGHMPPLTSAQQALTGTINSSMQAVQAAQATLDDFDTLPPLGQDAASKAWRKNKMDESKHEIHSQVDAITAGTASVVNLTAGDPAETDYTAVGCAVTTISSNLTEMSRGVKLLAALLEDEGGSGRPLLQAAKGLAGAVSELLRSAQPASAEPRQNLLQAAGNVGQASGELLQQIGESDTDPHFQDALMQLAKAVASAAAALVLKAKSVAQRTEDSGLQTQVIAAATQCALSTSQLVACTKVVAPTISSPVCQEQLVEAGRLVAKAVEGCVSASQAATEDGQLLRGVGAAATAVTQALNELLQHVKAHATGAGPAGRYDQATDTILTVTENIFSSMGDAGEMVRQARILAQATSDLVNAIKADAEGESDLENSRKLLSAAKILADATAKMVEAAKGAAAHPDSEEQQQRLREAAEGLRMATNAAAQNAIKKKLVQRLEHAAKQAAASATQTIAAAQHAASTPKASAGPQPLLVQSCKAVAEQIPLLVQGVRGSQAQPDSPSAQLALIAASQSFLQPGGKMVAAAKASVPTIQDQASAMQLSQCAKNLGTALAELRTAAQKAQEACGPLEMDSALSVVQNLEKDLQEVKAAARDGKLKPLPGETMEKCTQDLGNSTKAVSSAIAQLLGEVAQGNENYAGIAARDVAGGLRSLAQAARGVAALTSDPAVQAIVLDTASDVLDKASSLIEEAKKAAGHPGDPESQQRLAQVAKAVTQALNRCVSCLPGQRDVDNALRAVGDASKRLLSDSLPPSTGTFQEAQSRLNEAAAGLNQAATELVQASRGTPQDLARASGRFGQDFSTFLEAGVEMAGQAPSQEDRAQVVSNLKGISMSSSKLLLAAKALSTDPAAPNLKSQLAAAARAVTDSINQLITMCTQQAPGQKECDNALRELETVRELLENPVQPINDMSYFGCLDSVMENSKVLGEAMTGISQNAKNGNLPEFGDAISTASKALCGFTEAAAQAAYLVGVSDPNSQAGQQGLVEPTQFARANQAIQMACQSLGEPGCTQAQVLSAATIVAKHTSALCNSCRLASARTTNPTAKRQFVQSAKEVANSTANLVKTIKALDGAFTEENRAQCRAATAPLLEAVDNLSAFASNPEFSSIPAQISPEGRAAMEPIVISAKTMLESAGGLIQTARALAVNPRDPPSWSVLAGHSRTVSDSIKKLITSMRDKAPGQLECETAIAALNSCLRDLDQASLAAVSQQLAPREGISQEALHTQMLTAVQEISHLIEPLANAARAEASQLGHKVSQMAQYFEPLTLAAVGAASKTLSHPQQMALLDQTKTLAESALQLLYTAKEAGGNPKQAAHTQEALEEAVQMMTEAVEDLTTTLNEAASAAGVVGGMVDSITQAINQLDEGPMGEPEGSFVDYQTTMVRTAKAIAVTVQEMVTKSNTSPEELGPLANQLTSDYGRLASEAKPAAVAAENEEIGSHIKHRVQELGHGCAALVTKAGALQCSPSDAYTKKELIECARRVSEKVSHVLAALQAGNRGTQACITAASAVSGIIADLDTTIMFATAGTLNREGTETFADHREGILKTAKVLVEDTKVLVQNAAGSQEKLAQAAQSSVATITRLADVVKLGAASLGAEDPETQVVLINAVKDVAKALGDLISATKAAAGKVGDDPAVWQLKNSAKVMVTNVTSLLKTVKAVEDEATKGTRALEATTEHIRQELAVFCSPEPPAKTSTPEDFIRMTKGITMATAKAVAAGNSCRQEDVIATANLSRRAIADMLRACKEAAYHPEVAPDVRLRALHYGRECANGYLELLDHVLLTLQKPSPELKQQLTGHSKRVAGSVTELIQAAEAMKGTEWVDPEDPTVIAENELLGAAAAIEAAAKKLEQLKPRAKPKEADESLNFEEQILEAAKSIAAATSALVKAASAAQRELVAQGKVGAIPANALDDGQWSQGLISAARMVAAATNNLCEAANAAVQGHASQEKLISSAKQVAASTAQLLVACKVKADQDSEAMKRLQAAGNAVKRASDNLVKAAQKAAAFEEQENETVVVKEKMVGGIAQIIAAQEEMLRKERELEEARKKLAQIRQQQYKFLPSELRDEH
UniProt O70161: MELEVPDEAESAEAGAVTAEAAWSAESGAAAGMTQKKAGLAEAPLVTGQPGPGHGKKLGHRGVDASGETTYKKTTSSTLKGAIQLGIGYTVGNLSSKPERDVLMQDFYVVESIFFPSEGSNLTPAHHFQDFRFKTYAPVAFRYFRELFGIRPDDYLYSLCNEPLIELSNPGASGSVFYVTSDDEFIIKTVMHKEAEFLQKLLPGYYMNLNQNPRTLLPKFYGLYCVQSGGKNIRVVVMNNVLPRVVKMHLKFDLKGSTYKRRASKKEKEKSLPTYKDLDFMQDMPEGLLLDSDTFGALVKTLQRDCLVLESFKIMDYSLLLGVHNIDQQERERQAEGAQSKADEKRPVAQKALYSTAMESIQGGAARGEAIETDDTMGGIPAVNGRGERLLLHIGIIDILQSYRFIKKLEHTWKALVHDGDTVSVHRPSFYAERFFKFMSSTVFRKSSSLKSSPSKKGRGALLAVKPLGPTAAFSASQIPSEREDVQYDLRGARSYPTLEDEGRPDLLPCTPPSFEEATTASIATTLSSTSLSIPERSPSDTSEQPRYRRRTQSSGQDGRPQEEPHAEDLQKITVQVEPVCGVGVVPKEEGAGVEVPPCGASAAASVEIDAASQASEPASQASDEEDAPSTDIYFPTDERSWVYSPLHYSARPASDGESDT

Tests used:
[1] = biological target: talin clones isolated in the yeast two-hybrid screen (Homo sapiens (Human)) (UniProt Q9Y490); assay: yeast two-hybrid screen
[2] = biological target: GST-talin head (human talin1 head region 1-435) (human) (UniProt Q9Y490); assay: GST pull-down with recombinant proteins
[3] = biological target: GST-talin head Lys^357->Gln mutant (human) (UniProt Q9Y490); assay: GST pull-down
[4] = biological target: GST-talin head Arg^358->Gln mutant (human) (UniProt Q9Y490); assay: GST pull-down
[5] = biological target: GST-talin head (human talin1 head region 1-435) (human) (UniProt Q9Y490); assay: GST pull-down competition; competitor His-β1-integrin tail
[6] = biological target: talin (Homo sapiens (Human)) (UniProt Q9Y490); assay: co-immunoprecipitation of c-Myc-tagged chimeras
[7] = biological target: talin (Homo sapiens (Human)) (UniProt Q9Y490); assay: co-immunoprecipitation with talin, compared with wild-type PIPKIγ661

Substance: His-PIPKIγ661 C-terminus (439-661) Tyr644 to Phe mutant (from UniProt O70161 439-661)
binding [2]: binds

Substance: His-PIPKIγ661 C-terminus (439-661) Tyr644/649 to Phe mutant (from UniProt O70161 439-661)
binding [2]: binds

Substance: His-PIPKIγ661 C-terminus, wild-type (439-661) (from UniProt O70161 439-661)
binding [3]: binds
binding [4]: binds
binding [2]: binds
binding [5]: binds

Substance: PIPKIγ-E (from UniProt O70161 1-658) (enzyme)
binding [7]: binds

More lines, now with the values ahead:

binding [1]: binds
Substance: 178-residue C-terminal region of PIPKIγ661 (yeast two-hybrid bait) (from UniProt O70161 484-661)

binding [2]: binds
Substance: His-PIPKIγ661 C-terminus (439-661) Tyr649 to Phe mutant (from UniProt O70161 439-661)

binding [6]: binds
Substance: PIPKIα/γ26 chimera (c-Myc-tagged) (from UniProt Q99755 1-562) (enzyme)

binding [7]: binds
Substance: PIPKIγTyr^649->Phe (from UniProt O70161 1-661) (enzyme)
